Measured data: PubChem BioAssay AID1259254 (NCATS, 2017)
Screen: 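Genome-wide screen for genes that prevent DNA re-replication in cancer cells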 (primary screen). System: human HCT116 colorectal cancer cells. Reagents: single siRNA against human genes. Timing: 3 days. Measured: 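Nuclei stained with Hoechst and imaged; cell-cycle phase assigned by DNA content; G2 share scaled per plate, non-targeting siRNA 0%, GMNN siRNA 100%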. Reading the numbers: G2 robust z-score and G2 cells, % of GMNN control: higher = more G2 cells, more excess DNA replication; raw share of cells in G2: higher = larger share of cells with G2 DNA content. Active means: 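An siRNA counts as active if its G2 robust z-score lies at least 5 MADs above the screen median; here such calls match roughly 38% of GMNN control or more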.
The whole screen tested about 59,000 reagents; this is a part drawn at random. About 1,550 of them (2.6%) count as active. 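G2 share is only a proxy for re-replication; each gene was hit by three separate siRNAs, and active genes were retested.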 The raw values are shown without normalisation. Reagents against one gene are numbered here. No sequences are given here. Not given: the amount of reagent.

| gene | reagent no. | G2 robust z-score | G2 cells, % of GMNN control | raw share of cells in G2 (%) | Call |
| --- | --- | --- | --- | --- | --- |
| THNSL2 (GeneID 55258) | 1 | -1.11 | -4.84 | 2.7 | inactive |
| THNSL2 (GeneID 55258) | 2 | -0.997 | -4.05 | 2.65 | inactive |
| THNSL2 (GeneID 55258) | 3 | 7.27 | 54.1 | 30.1 | active |
| WDR64 (GeneID 128025) | 1 | -0.245 | 1.25 | 6.25 | inactive |
| WDR64 (GeneID 128025) | 2 | 1.14 | 11 | 9.69 | inactive |
| WDR64 (GeneID 128025) | 3 | -0.461 | -0.278 | 4.38 | inactive |
| THEM6 (GeneID 51337) | 1 | 5.24 | 39.8 | 16.4 | active |
| THEM6 (GeneID 51337) | 2 | -1.72 | -9.1 | 0.346 | inactive |
| THEM6 (GeneID 51337) | 3 | 1.75 | 15.3 | 10.7 | inactive |
| PAM (GeneID 5066) | 1 | -1.03 | -4.31 | 3.57 | inactive |
| PAM (GeneID 5066) | 2 | 0.599 | 7.18 | 5.65 | inactive |
| PAM (GeneID 5066) | 3 | -0.571 | -1.05 | 4.33 | inactive |
| PHKB (GeneID 5257) | 1 | 1.06 | 10.4 | 8.18 | inactive |
| PHKB (GeneID 5257) | 2 | 0.508 | 6.54 | 5.47 | inactive |
| PHKB (GeneID 5257) | 3 | 1.49 | 13.4 | 8.35 | inactive |
| OR4X2 (GeneID 119764) | 1 | 0.735 | 8.14 | 5.76 | inactive |
| OR4X2 (GeneID 119764) | 2 | -0.428 | -0.0473 | 1.8 | inactive |
| OR4X2 (GeneID 119764) | 3 | -0.0435 | 2.66 | 5.16 | inactive |
| POLE (GeneID 5426) | 1 | 0.139 | 3.95 | 6.34 | inactive |
| POLE (GeneID 5426) | 2 | -1.19 | -5.42 | 2.61 | inactive |
| POLE (GeneID 5426) | 3 | 3.06 | 24.5 | 12.3 | inactive |
| IDH2 (GeneID 3418) | 1 | -0.588 | -1.17 | 5.24 | inactive |
| IDH2 (GeneID 3418) | 2 | -0.327 | 0.664 | 4.44 | inactive |
| IDH2 (GeneID 3418) | 3 | 0.449 | 6.13 | 7.27 | inactive |
| GALP (GeneID 85569) | 1 | 3.15 | 25.1 | 14.7 | inactive |
| GALP (GeneID 85569) | 2 | 3.67 | 28.8 | 12 | inactive |
| GALP (GeneID 85569) | 3 | 1.64 | 14.5 | 7.53 | inactive |
| PYCR3 (GeneID 65263) | 1 | -0.826 | -2.85 | 4.47 | inactive |
| PYCR3 (GeneID 65263) | 2 | 2.6 | 21.2 | 11.9 | inactive |
| PYCR3 (GeneID 65263) | 3 | 2.6 | 21.3 | 11.9 | inactive |
| PABPC5 (GeneID 140886) | 1 | -0.456 | -0.243 | 5.84 | inactive |
| PABPC5 (GeneID 140886) | 2 | -0.132 | 2.04 | 5.56 | inactive |
| PABPC5 (GeneID 140886) | 3 | -0.111 | 2.18 | 5.5 | inactive |
| TMEM237 (GeneID 65062) | 1 | 0.187 | 4.28 | 6.44 | inactive |
| TMEM237 (GeneID 65062) | 2 | 0.457 | 6.18 | 7.38 | inactive |
| TMEM237 (GeneID 65062) | 3 | -1.06 | -4.51 | 1.51 | inactive |
| FMR1 (GeneID 2332) | 1 | -0.137 | 2 | 5.96 | inactive |
| FMR1 (GeneID 2332) | 2 | 2.17 | 18.3 | 12.2 | inactive |
| FMR1 (GeneID 2332) | 3 | -0.456 | -0.243 | 3.57 | inactive |
| PDE7B (GeneID 27115) | 1 | 0.631 | 7.41 | 9.52 | inactive |
| PDE7B (GeneID 27115) | 2 | 7.66 | 56.9 | 23.1 | active |
| PDE7B (GeneID 27115) | 3 | -0.645 | -1.57 | 3.48 | inactive |
| MARCHF11 (GeneID 441061) | 1 | 0.191 | 4.31 | 5.29 | inactive |
| MARCHF11 (GeneID 441061) | 2 | 6.88 | 51.4 | 22.9 | active |
| MARCHF11 (GeneID 441061) | 3 | -0.818 | -2.79 | 2.17 | inactive |
| KISS1 (GeneID 3814) | 1 | 1.01 | 10.1 | 9.26 | inactive |
| KISS1 (GeneID 3814) | 2 | 0.437 | 6.04 | 6.61 | inactive |
| KISS1 (GeneID 3814) | 3 | 3.52 | 27.7 | 13.4 | inactive |
| DEDD (GeneID 9191) | 1 | 0.0518 | 3.33 | 6.61 | inactive |
| DEDD (GeneID 9191) | 2 | -0.23 | 1.35 | 4.43 | inactive |
| DEDD (GeneID 9191) | 3 | 2.15 | 18.1 | 9.75 | inactive |
| GUCY1B1 (GeneID 2983) | 1 | 0.0757 | 3.5 | 6.32 | inactive |
| GUCY1B1 (GeneID 2983) | 2 | -1.43 | -7.11 | 2.98 | inactive |
| GUCY1B1 (GeneID 2983) | 3 | -1.15 | -5.11 | 2.33 | inactive |
| VHLL (GeneID 391104) | 1 | -0.64 | -1.54 | 5.24 | inactive |
| VHLL (GeneID 391104) | 2 | 0.252 | 4.74 | 6.81 | inactive |
| VHLL (GeneID 391104) | 3 | 2.16 | 18.1 | 10.9 | inactive |
| IGFL2-AS1 (GeneID 645553) | 1 | -0.104 | 2.23 | 4.62 | inactive |
| IGFL2-AS1 (GeneID 645553) | 2 | 0.0121 | 3.05 | 4.36 | inactive |
| IGFL2-AS1 (GeneID 645553) | 3 | -0.557 | -0.953 | 2.74 | inactive |
| ODAD3 (GeneID 115948) | 1 | -0.902 | -3.38 | 2.74 | inactive |
| ODAD3 (GeneID 115948) | 2 | -1.24 | -5.74 | 1.62 | inactive |
| ODAD3 (GeneID 115948) | 3 | 1.07 | 10.5 | 4.88 | inactive |
| PIPOX (GeneID 51268) | 1 | 1.11 | 10.8 | 8.22 | inactive |
| PIPOX (GeneID 51268) | 2 | -0.199 | 1.56 | 4.4 | inactive |
| PIPOX (GeneID 51268) | 3 | -0.537 | -0.808 | 5.59 | inactive |
| TEX12 (GeneID 56158) | 1 | -0.403 | 0.131 | 4.4 | inactive |
| TEX12 (GeneID 56158) | 2 | -0.571 | -1.05 | 3.96 | inactive |
| TEX12 (GeneID 56158) | 3 | 1.16 | 11.1 | 6.56 | inactive |

A few values from above:
ODAD3 (GeneID 115948) #3, G2 robust z-score = 1.07
Result for PAM (GeneID 5066) #2 under “G2 robust z-score”: 0.599
Entry of PYCR3 (GeneID 65263) #1 under “G2 cells, % of GMNN control”: -2.85
Entry for KISS1 (GeneID 3814) #1 in “G2 cells, % of GMNN control”: 10.1
Under “raw share of cells in G2 (%)”, THEM6 (GeneID 51337) #1 shows 16.4
Under “G2 robust z-score”, THNSL2 (GeneID 55258) #1 has -1.11
